{
  "source": "paper PMC8707461",
  "about": "“In Vitro and In Vivo Inhibition of MATE1 by Tyrosine Kinase Inhibitors” (Pharmaceutics, 2021)",
  "origin": "cited, not measured here",
  "test_system": "MATE1",
  "conditions": "publicly available information; ref FDA/EMA or supplement refs 1-8; cited from earlier work",
  "data": [
    {"smiles": "CNC(=O)c1ccccc1Sc1ccc2c(/C=C/c3ccccn3)n[nH]c2c1", "note": "[Axitinib]", "values": [
      {"measurement": "IC50", "value": "< 10", "unit": "µM"}
    ]}
  ]
}
